{"source": "patent US20130136753A1", "about": "“PAXILLIN AS A THERAPEUTIC OR DIAGNOSTIC MARKER FOR CANCER” (UNIVERSITY OF ROCHESTER, priority 2010, published 2013)", "system": "Erk1/2", "experiment": "Western blot of Erk1/2 phosphorylation in LnCAP cells", "format": "cell-based, human", "conditions": "inhibitor 30 min (100 nM flutamide, 20 μM AG1478, 5 μM Erlotinib, 20 μM PP2, 20 μM galardin) before 25 nM DHT 30 min", "description": "Thereafter, cells were treated with vehicle (0.1% DMSO) or inhibitors Galardin, PP2, AG1478 (Calbiochem), flutamide, or erlotinib (Sigma) for 30 minutes before stimulation with 0.1% ethanol (vehicle) or 25 nM DHT for 30 minutes.\nPC3 or LnCAP cells were treated with non-targeting siRNA pool (ThermoFisher Scientific) or paxillin-specific siRNA according to manufacturer's instructions. Two sets of human paxillin siRNAs were used: 1) human paxillin siRNA (Santa Cruz Biotechnology) containing three target-specific 20-25 nucleotide siRNAs or 2) human paxillin siRNA ON-TARGET plus SMARTpoo1 (ThemoFisher Scientific) containing four siRNAs targeting the paxillin mRNA. […] For experiments involving constitutively active (“CA”) Raf (William Walker, University of Pittsburgh) or MEK (Melanie Cobb, University of Texas Southwestern Medical Center), cells were co-transfected with paxillin or nonspecific siRNAs and cDNAs encoding caRaf or caMEK.", "note": "For at least one compound, name, drawing or mass did not settle the structure.", "data": [{"smiles": "CC(C)C(=O)Nc1ccc([N+](=O)[O-])c(C(F)(F)F)c1", "note": "[flutamide]", "values": [{"measurement": "DHT-induced Erk1/2 phosphorylation", "value": "blocked"}]}]}
